Some of the results follow. Shown are side measurements of this screen, not its main read-out; they come without a call. Compounds called inactive in the main read-out are mostly missing here. The note in brackets gives the kind of curve behind each potency; many fits are weak.

The experiment is described as follows: qHTS Assay for Lipid Storage Modulators in Drosophila S3 Cells.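 For cell number change: cells counted by Cell Tracker Red CMTPX staining in the red channel.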 Conditions: BODIPY lipid droplet fluorescence, 18-24 h; for cell number change: measured here: cell count max response, cells fed with added oleic acid. In outline: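 Laser-scanning cytometry quantifies lipid droplet accumulation (500–530 nm total intensity; droplet/cell object ratio) in oleic acid-fed (400 uM added) Drosophila S3 cells treated with a concentration series. 20 uM Triacsin C defined 100% inhibition.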
For orientation: In qHTS, concentration-response curves come from the screen itself.

The mark [1] stands for this setting: measured here: cell number channel AC50, cells fed with added oleic acid.
Where [2] appears, read: measured here: lipid fluorescence (Fed channel) AC50, cells fed with added oleic acid.

Turning to `CCOC(=O)/C=C/C(=O)OCC(=O)Nc1cccc(Cl)c1Cl`, the cell number change is -24.3%. The concentration at half-maximal activity (AC50) under setting [1] is 0.00461 µM [rising, full curve, poor fit].

Regarding `Clc1ccc(-n2nnnc2-c2cnc(-c3ccccn3)nc2-c2cccs2)cc1`, the cell number change was -25.9%.

On to `CN(C)c1nc(SCCOC(=O)COc2ccc(Cl)cc2Cl)nc(N(C)C)n1`, for which the cell number change turned out to be 11.9%. Besides, the AC50 under setting [1] was 0.164 µM [falling, full curve, poor fit]. The AC50 under setting [2] was 0.146 µM [falling, full curve, poor fit].

As for `CN1C(=O)c2ccc(NC(=O)c3ccc(Cl)cc3Cl)cc2C1=O`, the cell number change is -5.9%. For the same molecule, under setting [2], the AC50 was 29.1 µM [falling, single point].

Consider `Cc1ccc(S(=O)(=O)Nc2ccc3c(c2)nc2n3CCN(Cc3ccccc3)C2)cc1`, for which the cell number change amounted to 17.6%. Further, the AC50 under setting [1] is 1.16 µM [rising, partial curve, poor fit]. Also, the AC50 under setting [2] was 1.03 µM [rising, single point].

For the molecule `COc1ccc(C2C(C#N)=C(N)N(c3sc4c(c3C#N)CCCC4)C3=C2C(=O)CC(C)(C)C3)cc1OC` (stereo not drawn), the cell number change was found to be 8.59%. The AC50 under setting [2] was 1.84 µM [rising, partial curve].

Take `C=CCSc1nnc2n(CCc3ccccc3)c(=O)c3c4c(sc3n12)COC(C)(C)C4`: the AC50 under setting [1] is 0.517 µM [rising, full curve].

As to `COc1cc(C(=O)O/N=C2/C=CC(=O)C(C)=C2C)cc(OC)c1OC`, the cell number change is -30%. Also, the half-maximal activity concentration (AC50) under setting [1] is 0.00184 µM [falling, full curve, poor fit].

As for `CC(=O)N1c2ccc(S(=O)(=O)N(C)Cc3ccco3)cc2CC1C` (stereo not drawn), the cell number change is 16.4%. In addition, the AC50 under setting [2] was 29.1 µM [rising, single point].

Take `COc1ccc2c(C)cc(SC3CCOC3=O)nc2c1` (stereo not drawn): the cell number change was found to be 55.7%. Under setting [1], the AC50 is 25.9 µM [rising, single point].

For the molecule `CCN(CC)c1ccc(C(=O)N/N=C(\C)c2cccc(OC)c2)cc1`, the cell number change worked out at 12.6%. The AC50 under setting [2] is 2.31 µM [rising, partial curve, poor fit].

`COc1cc(C(=O)O)ccc1O`: the cell number change was -30.2%. The AC50 under setting [1] is 0.116 µM [falling, full curve, poor fit].

Take `FC(F)(F)c1cccc(N2CCN(Cc3cccnc3)CC2)c1`: the AC50 under setting [2] was 0.731 µM [rising, single point].

For the molecule `CCC(C)[C@H](NC(=O)N1CC(=O)Nc2ccccc21)C(=O)N1CCC[C@H]1C(=O)O` (stereo partly drawn), the cell number change came to 46.9%. In addition, under setting [1], the AC50 is 32.6 µM [rising, partial curve, poor fit]. Further, under setting [2], the AC50 was 4.61 µM [rising, partial curve, poor fit].

Take `Cc1snc(SCc2cccc(Cl)c2)c1C#N`: the cell number change came out at 9.09%. Besides, under setting [2], the AC50 was 6.51 µM [rising, partial curve, poor fit].

As for `O=C(Nc1ccccc1Oc1ccccc1)c1ccccc1F`, the cell number change was -1.09%. Besides, the AC50 under setting [1] is 0.731 µM [rising, single point].

For `NS(=O)(=O)c1ccc(Nc2nc(-c3ccc(O)cc3O)cs2)cc1`, the cell number change was found to be 112%. Under setting [1], the AC50 was 2.06 µM [rising, full curve, poor fit].

In the case of `CCCCn1c(N)c(N(C)C(=O)c2ccc(OCC3CCCO3)cc2)c(=O)[nH]c1=O` (stereo not drawn), the cell number change was -2.36%.

On to `CCC(=O)Nc1nc(C)c(C(=O)Nc2cccc(Cl)c2)s1`, for which the cell number change came out at 17.2%. The AC50 under setting [2] was 16.4 µM [falling, single point].

Take `COc1ccc(OCC(O)Cn2c(=N)n(Cc3ccccc3)c3ccccc32)cc1` (stereo not drawn): under setting [1], the AC50 was 5.8 µM [falling, partial curve].

For orientation: AC50 means the concentration at which the activity in the assay is half-maximal. A higher AC50 goes with weaker potency.

These data come from PubChem BioAssay AID2685 (National Center for Advancing Translational Sciences (NCATS), 2010).
